The list shows a part of the results.
Key:
Assay in all cases: log2 fold change, soluble protein after heating vs DMSO (PISA); higher = thermal stabilisation; K562 lysate, 10 uM; active = over 0.2 and 3.5 SD of the protein, either way, in both replicates (recomputed)
nilotinib = compound: Cc1cn(-c2cc(NC(=O)c3ccc(C)c(Nc4nccc(-c5cccnc5)n4)c3)cc(C(F)(F)F)c2)cn1 [nilotinib]
Procedure, shortened: (§1)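 K562 pellets were dounce-homogenised in PBS pH 7.4 with 1 mM MgCl2, and the crude extract at 1 mg/mL protein was treated with 10 μM compound for 30 min. Aliquots were heated for 3 min across 48°C-58°C, pooled, and brought to 0.5% NP-40 at 4°C; soluble protein was the supernatant after 21,000xg for 90 min. Soluble protein was quantified by TMTpro 16plex LC-MS/MS with channel sums equalised, and reported as log2 fold change in thermal stability against DMSO controls, with values from duplicates.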

By UniProt entry, the sequences of proteins in these tests, tags left out. Where a name states a change or a piece, a line headed by the entry shows the natural chain unless it says otherwise.
UniProt O75027: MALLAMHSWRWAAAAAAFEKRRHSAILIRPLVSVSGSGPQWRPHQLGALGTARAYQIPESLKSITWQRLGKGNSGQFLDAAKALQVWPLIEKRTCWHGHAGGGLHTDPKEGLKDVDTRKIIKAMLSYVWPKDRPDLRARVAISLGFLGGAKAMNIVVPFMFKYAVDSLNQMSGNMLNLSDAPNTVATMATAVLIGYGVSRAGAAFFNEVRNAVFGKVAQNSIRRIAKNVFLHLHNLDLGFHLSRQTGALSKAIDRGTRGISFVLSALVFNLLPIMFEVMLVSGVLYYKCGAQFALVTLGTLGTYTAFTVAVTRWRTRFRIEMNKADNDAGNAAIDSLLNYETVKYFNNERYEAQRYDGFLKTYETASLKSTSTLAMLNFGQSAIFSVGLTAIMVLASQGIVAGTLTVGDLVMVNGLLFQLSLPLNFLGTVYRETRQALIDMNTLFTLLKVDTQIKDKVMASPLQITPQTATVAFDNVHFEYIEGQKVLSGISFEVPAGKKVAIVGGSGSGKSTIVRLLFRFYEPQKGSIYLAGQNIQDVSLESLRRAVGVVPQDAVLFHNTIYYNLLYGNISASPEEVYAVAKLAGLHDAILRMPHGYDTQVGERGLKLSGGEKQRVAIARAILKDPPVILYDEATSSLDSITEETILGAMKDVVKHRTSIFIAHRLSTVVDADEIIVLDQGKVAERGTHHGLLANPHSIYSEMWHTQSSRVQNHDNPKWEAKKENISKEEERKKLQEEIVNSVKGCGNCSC
UniProt P42684, whole entry, looked up: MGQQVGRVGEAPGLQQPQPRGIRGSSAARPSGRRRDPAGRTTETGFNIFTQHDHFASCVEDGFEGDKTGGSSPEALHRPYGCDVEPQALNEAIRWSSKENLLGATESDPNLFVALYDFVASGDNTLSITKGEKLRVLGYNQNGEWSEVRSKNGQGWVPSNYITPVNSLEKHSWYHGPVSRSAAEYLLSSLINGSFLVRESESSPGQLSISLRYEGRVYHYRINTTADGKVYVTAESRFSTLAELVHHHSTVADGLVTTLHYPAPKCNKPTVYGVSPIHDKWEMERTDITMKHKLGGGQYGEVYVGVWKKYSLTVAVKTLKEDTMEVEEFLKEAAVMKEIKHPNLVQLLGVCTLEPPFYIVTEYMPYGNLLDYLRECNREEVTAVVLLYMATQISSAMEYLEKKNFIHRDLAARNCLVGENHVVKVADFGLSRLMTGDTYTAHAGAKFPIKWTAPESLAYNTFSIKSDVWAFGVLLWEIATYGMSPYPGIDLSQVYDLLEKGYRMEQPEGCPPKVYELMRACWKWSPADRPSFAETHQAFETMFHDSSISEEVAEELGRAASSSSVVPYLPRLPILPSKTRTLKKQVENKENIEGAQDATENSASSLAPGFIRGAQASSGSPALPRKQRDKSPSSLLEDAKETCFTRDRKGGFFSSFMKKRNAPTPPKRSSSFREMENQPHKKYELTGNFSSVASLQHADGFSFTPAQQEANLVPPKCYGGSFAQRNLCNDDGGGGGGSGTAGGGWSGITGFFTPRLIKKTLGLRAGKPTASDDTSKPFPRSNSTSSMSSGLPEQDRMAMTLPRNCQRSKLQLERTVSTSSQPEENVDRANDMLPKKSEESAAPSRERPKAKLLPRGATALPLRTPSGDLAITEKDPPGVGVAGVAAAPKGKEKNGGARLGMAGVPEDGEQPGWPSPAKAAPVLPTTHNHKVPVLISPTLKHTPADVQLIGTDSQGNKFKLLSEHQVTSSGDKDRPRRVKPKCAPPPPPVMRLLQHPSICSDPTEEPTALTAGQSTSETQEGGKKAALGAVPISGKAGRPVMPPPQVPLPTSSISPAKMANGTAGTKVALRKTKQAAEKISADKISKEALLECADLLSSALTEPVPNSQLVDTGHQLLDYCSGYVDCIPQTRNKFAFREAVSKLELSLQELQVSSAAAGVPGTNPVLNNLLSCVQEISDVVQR
UniProt Q9NUJ1: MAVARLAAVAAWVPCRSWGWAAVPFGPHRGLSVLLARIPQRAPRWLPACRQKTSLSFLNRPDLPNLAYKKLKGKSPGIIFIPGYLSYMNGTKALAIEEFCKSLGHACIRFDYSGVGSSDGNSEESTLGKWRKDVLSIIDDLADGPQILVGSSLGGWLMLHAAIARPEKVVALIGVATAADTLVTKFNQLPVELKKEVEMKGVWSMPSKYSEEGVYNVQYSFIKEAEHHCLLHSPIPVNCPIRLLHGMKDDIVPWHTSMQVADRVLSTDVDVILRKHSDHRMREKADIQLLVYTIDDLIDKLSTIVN
UniProt Q5VST6: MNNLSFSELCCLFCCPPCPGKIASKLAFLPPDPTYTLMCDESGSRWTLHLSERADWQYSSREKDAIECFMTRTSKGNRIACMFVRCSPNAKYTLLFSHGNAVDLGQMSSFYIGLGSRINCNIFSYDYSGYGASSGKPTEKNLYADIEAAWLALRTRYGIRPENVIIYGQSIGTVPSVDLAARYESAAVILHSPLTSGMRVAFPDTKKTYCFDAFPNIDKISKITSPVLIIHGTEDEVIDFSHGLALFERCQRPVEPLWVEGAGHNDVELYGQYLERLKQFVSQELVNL
UniProt Q9NX38: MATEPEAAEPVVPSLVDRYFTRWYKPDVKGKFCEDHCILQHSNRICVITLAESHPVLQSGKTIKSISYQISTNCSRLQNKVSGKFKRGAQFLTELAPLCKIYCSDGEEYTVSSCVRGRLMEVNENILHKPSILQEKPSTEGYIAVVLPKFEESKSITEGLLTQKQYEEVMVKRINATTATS
UniProt Q9NY61: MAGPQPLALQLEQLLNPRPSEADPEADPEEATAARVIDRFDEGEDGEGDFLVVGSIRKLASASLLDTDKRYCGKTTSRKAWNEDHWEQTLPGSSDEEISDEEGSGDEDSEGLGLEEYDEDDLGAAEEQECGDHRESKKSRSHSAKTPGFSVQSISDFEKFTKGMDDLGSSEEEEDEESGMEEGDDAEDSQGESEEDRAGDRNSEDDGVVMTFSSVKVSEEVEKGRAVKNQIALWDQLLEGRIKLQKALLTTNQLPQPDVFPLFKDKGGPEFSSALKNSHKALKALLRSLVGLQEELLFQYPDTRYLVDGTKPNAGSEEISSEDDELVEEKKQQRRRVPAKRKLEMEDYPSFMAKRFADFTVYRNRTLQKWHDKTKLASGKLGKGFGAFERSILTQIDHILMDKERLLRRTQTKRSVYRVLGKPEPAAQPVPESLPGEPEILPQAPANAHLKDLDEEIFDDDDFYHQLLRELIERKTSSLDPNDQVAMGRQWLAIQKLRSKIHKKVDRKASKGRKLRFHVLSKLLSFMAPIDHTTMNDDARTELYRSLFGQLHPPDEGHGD
UniProt Q96IU4: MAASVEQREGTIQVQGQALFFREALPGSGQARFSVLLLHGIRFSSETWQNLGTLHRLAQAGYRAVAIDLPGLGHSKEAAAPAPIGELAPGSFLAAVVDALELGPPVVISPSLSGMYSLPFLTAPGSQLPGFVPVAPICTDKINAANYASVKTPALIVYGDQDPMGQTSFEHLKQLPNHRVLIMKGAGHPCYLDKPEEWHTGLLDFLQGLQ
UniProt Q8WTS1: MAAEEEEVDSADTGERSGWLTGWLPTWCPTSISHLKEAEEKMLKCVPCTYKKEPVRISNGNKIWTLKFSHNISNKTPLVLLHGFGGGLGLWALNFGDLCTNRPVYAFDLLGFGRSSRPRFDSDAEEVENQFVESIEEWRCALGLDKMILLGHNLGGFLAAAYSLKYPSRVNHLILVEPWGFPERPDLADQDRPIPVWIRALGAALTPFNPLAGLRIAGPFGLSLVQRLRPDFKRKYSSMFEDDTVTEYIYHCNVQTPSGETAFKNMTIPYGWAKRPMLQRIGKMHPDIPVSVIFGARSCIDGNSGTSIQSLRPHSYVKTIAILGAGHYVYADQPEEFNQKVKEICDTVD
UniProt Q9ULW3: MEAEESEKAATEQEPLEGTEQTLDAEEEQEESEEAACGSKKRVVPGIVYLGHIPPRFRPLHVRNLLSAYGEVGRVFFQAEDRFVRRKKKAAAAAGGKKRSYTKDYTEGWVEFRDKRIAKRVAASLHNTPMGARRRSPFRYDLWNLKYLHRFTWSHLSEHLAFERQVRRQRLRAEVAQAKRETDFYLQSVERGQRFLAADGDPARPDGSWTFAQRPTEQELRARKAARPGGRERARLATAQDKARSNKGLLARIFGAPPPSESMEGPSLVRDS
UniProt Q9NPJ3: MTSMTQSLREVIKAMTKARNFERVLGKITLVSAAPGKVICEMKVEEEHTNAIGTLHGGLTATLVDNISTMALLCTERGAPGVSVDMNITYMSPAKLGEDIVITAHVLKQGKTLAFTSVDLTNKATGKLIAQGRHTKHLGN
UniProt Q9BTE6: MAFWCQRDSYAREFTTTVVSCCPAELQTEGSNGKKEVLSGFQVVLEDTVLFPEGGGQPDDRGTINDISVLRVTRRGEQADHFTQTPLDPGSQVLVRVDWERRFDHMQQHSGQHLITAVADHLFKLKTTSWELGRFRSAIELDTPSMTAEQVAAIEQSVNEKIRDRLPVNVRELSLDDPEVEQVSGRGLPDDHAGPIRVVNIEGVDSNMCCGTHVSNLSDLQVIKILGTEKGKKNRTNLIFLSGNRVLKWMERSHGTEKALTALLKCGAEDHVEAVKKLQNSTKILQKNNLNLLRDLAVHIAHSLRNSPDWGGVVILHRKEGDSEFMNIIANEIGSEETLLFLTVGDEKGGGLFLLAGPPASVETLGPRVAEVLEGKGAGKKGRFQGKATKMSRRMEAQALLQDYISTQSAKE
UniProt P42765: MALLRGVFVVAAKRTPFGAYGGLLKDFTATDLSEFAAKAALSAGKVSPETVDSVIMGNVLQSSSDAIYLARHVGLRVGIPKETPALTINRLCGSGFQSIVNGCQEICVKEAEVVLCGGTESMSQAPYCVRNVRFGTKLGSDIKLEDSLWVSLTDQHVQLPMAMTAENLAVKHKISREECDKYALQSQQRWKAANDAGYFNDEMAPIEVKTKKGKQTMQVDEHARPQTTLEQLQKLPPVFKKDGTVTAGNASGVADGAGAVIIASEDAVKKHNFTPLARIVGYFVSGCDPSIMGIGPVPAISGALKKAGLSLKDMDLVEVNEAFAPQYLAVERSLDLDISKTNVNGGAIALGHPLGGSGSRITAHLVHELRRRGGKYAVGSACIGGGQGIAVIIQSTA
UniProt P33527: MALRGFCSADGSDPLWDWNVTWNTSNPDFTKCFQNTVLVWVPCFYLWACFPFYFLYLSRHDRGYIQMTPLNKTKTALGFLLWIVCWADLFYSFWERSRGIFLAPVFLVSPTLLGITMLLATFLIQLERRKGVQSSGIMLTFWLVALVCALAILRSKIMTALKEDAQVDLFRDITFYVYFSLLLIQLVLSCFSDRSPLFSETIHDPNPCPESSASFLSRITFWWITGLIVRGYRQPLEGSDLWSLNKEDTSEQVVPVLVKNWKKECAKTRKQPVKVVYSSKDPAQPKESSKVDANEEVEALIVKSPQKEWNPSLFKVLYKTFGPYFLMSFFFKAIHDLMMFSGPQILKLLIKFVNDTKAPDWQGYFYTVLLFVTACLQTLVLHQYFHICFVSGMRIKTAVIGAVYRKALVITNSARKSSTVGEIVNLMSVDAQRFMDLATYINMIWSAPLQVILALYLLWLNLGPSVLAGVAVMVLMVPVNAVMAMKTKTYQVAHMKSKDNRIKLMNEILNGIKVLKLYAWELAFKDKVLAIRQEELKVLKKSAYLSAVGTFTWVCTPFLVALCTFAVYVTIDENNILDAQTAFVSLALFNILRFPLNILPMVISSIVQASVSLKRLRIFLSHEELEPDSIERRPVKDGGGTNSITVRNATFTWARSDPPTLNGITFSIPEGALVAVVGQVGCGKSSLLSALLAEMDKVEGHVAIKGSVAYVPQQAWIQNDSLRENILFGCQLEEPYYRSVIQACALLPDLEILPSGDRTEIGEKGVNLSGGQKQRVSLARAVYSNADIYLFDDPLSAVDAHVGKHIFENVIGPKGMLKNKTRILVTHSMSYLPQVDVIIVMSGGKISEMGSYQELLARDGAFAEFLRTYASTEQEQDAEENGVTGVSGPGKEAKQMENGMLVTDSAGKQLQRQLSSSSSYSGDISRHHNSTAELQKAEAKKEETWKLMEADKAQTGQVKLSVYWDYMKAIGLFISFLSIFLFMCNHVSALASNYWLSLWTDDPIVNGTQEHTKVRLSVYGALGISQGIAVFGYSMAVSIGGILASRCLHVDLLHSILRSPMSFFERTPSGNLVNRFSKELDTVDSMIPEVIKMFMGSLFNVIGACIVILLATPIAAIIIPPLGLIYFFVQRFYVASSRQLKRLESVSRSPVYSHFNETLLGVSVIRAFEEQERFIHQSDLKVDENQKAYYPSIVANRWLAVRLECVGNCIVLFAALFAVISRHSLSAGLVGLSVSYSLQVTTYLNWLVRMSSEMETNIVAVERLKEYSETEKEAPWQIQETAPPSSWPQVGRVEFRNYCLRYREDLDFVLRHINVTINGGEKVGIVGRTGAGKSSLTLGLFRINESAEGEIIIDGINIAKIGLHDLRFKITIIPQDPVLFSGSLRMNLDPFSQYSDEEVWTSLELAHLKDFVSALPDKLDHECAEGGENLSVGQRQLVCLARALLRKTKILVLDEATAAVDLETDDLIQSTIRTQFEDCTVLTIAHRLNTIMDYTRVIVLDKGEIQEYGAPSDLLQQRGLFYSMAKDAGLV

[1] = compound: Cc1nc(Nc2n[nH]c3c2CN(C(=O)N[C@H](CN(C)C)c2ccccc2)C3(C)C)c2sccc2n1
Procedure, shortened: as §1

dasatinib = compound: Cc1nc(Nc2ncc(C(=O)Nc3c(C)cccc3Cl)s2)cc(N2CCN(CCO)CC2)n1 [dasatinib]
Procedure, shortened: as §1

[2] = compound: Cc1ncc(-c2ccnc(Nc3ccc(S(C)(=O)=O)cc3)n2)n1C(C)C
Procedure, shortened: as §1

[3] = compound: Cn1cc(-c2ccc3c(c2)CCN3C(=O)Cc2cccc(C(F)(F)F)c2)c2c(N)ncnc21
Procedure, shortened: as §1

quisinostat = compound: Cn1cc(CNCC2CCN(c3ncc(C(=O)NO)cn3)CC2)c2ccccc21 [quisinostat]
Procedure, shortened: as §1

tipifarnib = compound: Cn1cncc1[C@@](N)(c1ccc(Cl)cc1)c1ccc2c(c1)c(-c1cccc(Cl)c1)cc(=O)n2C [tipifarnib]
Procedure, shortened: as §1

[4] = compound: NC(=O)Nc1cc(-c2cccc(F)c2)sc1C(=O)N[C@H]1CCCNC1
Procedure, shortened: as §1

[5] = compound: NC(=O)c1cnc(N[C@@H]2CCCC[C@@H]2N)nc1Nc1cccc(-n2nccn2)c1
Procedure, shortened: as §1

[6] = compound: NC1(c2ccc(-c3nc4ccn5c(=O)[nH]nc5c4cc3-c3ccccc3)cc2)CCC1
Procedure, shortened: as §1

[7] = compound: NCC(=O)Nc1ccc(-n2nc(C(F)(F)F)cc2-c2ccc3c(ccc4ccccc43)c2)cc1
Procedure, shortened: as §1

vorinostat = compound: O=C(CCCCCCC(=O)Nc1ccccc1)NO [vorinostat]
Procedure, shortened: as §1

silmitasertib = compound: O=C(O)c1ccc2c(c1)nc(Nc1cccc(Cl)c1)c1ccncc12 [silmitasertib]
Procedure, shortened: as §1

[8] = compound: O=C1NC(=O)C(c2cnc3ccccn23)=C1c1cn2c3c(cc(F)cc13)CN(C(=O)N1CCCCC1)CC2
Procedure, shortened: as §1

entospletinib = compound: c1cn2cc(-c3ccc4cn[nH]c4c3)nc(Nc3ccc(N4CCOCC4)cc3)c2n1 [entospletinib]
Procedure, shortened: as §1

Measured: log2 fold change

ABCB7 isoform 2 (UniProt O75027)
inactive: nilotinib -0.003 | [1] -0.021 | dasatinib -0.019 | [2] 0.023 | [3] 0.017 | quisinostat -0.01 | tipifarnib -0.05 | [4] -0.002 | [5] 0.026 | [6] -0.03 | [7] -0.06 | vorinostat 0.24 | silmitasertib -0.025 | [8] -0.019 | entospletinib -0.022

ABL2 (UniProt P42684)
inactive: nilotinib -0.084 | [1] 0.157 | dasatinib 0.067 | [2] 0.091 | [3] 0.064 | quisinostat -0.16 | tipifarnib -0.116 | [4] 0.103 | [5] -0.028 | [6] -0.027 | [7] -0.093 | vorinostat -0.274 | silmitasertib 0.073 | [8] -0.055 | entospletinib -0.05

ABHD10 (UniProt Q9NUJ1)
inactive: nilotinib -0.036 | [1] 0.018 | dasatinib 0.029 | [2] 0 | [3] -0.024 | quisinostat 0.065 | tipifarnib 0.02 | [4] 0 | [5] -0.031 | [6] 0.008 | [7] 0.036 | vorinostat 0.091 | silmitasertib -0.028 | [8] -0.015 | entospletinib -0.046

ACCS (UniProt Q96QU6)
inactive: nilotinib -0.001 | [1] -0.06 | dasatinib -0.016 | [2] 0.16 | [3] -0.116 | quisinostat -0.22 | tipifarnib -0.05 | [4] 0.024 | [5] 0.031 | [6] -0.098 | [7] 0.095 | vorinostat 0.013 | silmitasertib 0.017 | [8] 0.106 | entospletinib 0.07

AASDHPPT (UniProt Q9NRN7)
inactive: nilotinib 0.004 | [1] -0.028 | dasatinib -0.014 | [2] -0.009 | [3] 0.023 | quisinostat -0.001 | tipifarnib 0.011 | [4] -0.01 | [5] -0.001 | [6] 0.016 | [7] 0.02 | vorinostat 0.019 | silmitasertib 0.015 | [8] 0.012 | entospletinib 0.008

ABHD17B (UniProt Q5VST6)
inactive: nilotinib 0.032 | [1] 0.057 | dasatinib 0.007 | [2] 0.087 | [3] 0.095 | quisinostat 0.003 | tipifarnib -0.099 | [4] 0.009 | [5] -0.041 | [6] 0.009 | [7] 0.096 | vorinostat 0.219 | silmitasertib -0.021 | [8] 0.032 | entospletinib 0.2

ABCB10 (UniProt Q9NRK6)
inactive: nilotinib -0.007 | [1] 0.029 | dasatinib 0.037 | [2] -0.035 | [3] 0.005 | quisinostat 0.02 | tipifarnib 0.026 | [4] -0.007 | [5] -0.015 | [6] -0.006 | [7] -0.06 | vorinostat 0.059 | silmitasertib 0.012 | [8] -0.01 | entospletinib 0.025

A0A0B4J2A0, A0A0B4J2A0
inactive: nilotinib 0.074 | [1] 0.011 | dasatinib -0.007 | [2] 0.007 | [3] -0.014 | quisinostat -0.015 | tipifarnib 0.008 | [4] -0.004 | [5] 0.019 | [6] -0.034 | [7] 0.086 | vorinostat -0.01 | silmitasertib 0.001 | [8] 0.002 | entospletinib -0.014

ABITRAM (UniProt Q9NX38)
inactive: nilotinib -0.022 | [1] 0.037 | dasatinib 0.115 | [2] 0.008 | [3] 0.039 | quisinostat -0.047 | tipifarnib -0.001 | [4] 0.073 | [5] -0.085 | [6] -0.021 | [7] 0.043 | vorinostat -0.249 | silmitasertib 0.028 | [8] 0.005 | entospletinib -0.012

AATF (UniProt Q9NY61)
inactive: nilotinib -0.002 | [1] 0.015 | dasatinib 0.022 | [2] 0.029 | [3] 0.038 | quisinostat 0.01 | tipifarnib -0.052 | [4] 0.021 | [5] 0.03 | [6] -0.011 | [7] -0.094 | vorinostat 0.054 | silmitasertib 0.061 | [8] -0.05 | entospletinib -0.009

Reprinted at random: 2 entries already listed
A0A0B4J2A0, A0A0B4J2A0
inactive: nilotinib 0.074 | [1] 0.011 | dasatinib -0.007 | [2] 0.007 | [3] -0.014 | quisinostat -0.015 | tipifarnib 0.008 | [4] -0.004 | [5] 0.019 | [6] -0.034 | [7] 0.086 | vorinostat -0.01 | silmitasertib 0.001 | [8] 0.002 | entospletinib -0.014

ABITRAM (UniProt Q9NX38)
inactive: nilotinib -0.022 | [1] 0.037 | dasatinib 0.115 | [2] 0.008 | [3] 0.039 | quisinostat -0.047 | tipifarnib -0.001 | [4] 0.073 | [5] -0.085 | [6] -0.021 | [7] 0.043 | vorinostat -0.249 | silmitasertib 0.028 | [8] 0.005 | entospletinib -0.012

(listing goes on)

ABHD14B (UniProt Q96IU4)
inactive: nilotinib 0.017 | [1] 0.004 | dasatinib 0.002 | [2] 0.052 | [3] -0.008 | quisinostat -0.039 | tipifarnib 0.004 | [4] -0.018 | [5] -0.02 | [6] -0.032 | [7] -0.139 | vorinostat -0.125 | silmitasertib -0.011 | [8] 0.005 | entospletinib 0.003

AAR2 (UniProt Q9Y312)
inactive: nilotinib 0.007 | [1] -0.037 | dasatinib 0.009 | [2] -0.022 | [3] 0.013 | quisinostat 0.008 | tipifarnib 0.016 | [4] -0.008 | [5] 0.02 | [6] 0.015 | [7] 0.009 | vorinostat 0.001 | silmitasertib 0.009 | [8] 0.007 | entospletinib -0.015

ACAP2 (UniProt Q15057)
inactive: nilotinib 0.007 | [1] -0.01 | dasatinib 0.007 | [2] -0.006 | [3] -0.002 | quisinostat 0.009 | tipifarnib 0.008 | [4] -0.011 | [5] 0.017 | [6] 0.01 | [7] 0.007 | vorinostat -0.125 | silmitasertib 0.025 | [8] -0.008 | entospletinib -0.009

ABHD5 (UniProt Q8WTS1)
inactive: nilotinib -0.153 | [1] 0.037 | dasatinib 0 | [2] -0.093 | [3] -0.044 | quisinostat -0.001 | tipifarnib -0.17 | [4] 0.002 | [5] -0.038 | [6] 0.018 | [7] -0.173 | vorinostat 0.075 | silmitasertib 0 | [8] 0.014 | entospletinib -0.09

ACLY (UniProt P53396)
inactive: nilotinib -0.005 | [1] -0.016 | dasatinib -0.026 | [2] -0.005 | [3] 0.021 | quisinostat 0.002 | tipifarnib 0.016 | [4] -0.004 | [5] 0.018 | [6] 0.014 | [7] -0.008 | vorinostat -0.029 | silmitasertib 0.012 | [8] -0.018 | entospletinib 0.014

ABT1 (UniProt Q9ULW3)
inactive: nilotinib 0.019 | [1] -0.025 | dasatinib 0.018 | [2] 0.095 | [3] -0.006 | quisinostat -0.147 | tipifarnib 0.042 | [4] 0.075 | [5] 0.044 | [6] -0.026 | [7] 0.109 | vorinostat -0.121 | silmitasertib 0.062 | [8] -0.056 | entospletinib -0.113

ACOT13 (UniProt Q9NPJ3)
inactive: nilotinib 0.069 | [1] -0.011 | dasatinib 0.015 | [2] 0.028 | [3] 0.044 | quisinostat -0.023 | tipifarnib 0.019 | [4] 0.005 | [5] -0.04 | [6] -0.013 | [7] 0 | vorinostat 0.139 | silmitasertib -0.006 | [8] -0.006 | entospletinib 0.029

AARSD1 isoform 3 (UniProt Q9BTE6)
inactive: nilotinib 0.013 | [1] -0.002 | dasatinib -0.033 | [2] 0.022 | [3] 0.03 | quisinostat -0.013 | tipifarnib 0.001 | [4] 0.002 | [5] 0.044 | [6] 0.005 | [7] -0.002 | vorinostat -0.189 | silmitasertib 0.052 | [8] 0.005 | entospletinib 0.013

ACAA2 (UniProt P42765)
inactive: nilotinib 0.025 | [1] -0.025 | dasatinib 0.005 | [2] 0.015 | [3] -0.026 | quisinostat 0.033 | tipifarnib 0.001 | [4] 0.001 | [5] 0.009 | [6] 0.019 | [7] -0.014 | vorinostat 0.124 | silmitasertib -0.005 | [8] -0.043 | entospletinib 0.024

ABCC1 (UniProt P33527)
inactive: nilotinib -0.006 | [1] -0.025 | dasatinib 0.009 | [2] 0.006 | [3] -0.006 | quisinostat -0.016 | tipifarnib 0 | [4] 0.005 | [5] 0.009 | [6] -0.006 | [7] -0.015 | vorinostat 0.038 | silmitasertib 0.024 | [8] 0.01 | entospletinib -0.029

ACIN1 (UniProt E7EQT4)
inactive: nilotinib 0.033 | [1] -0.032 | dasatinib 0.043 | [2] 0.006 | [3] 0.195 | quisinostat -0.087 | tipifarnib -0.021 | [4] -0.072 | [5] 0.041 | [6] -0.039 | [7] 0.076 | vorinostat 0.079 | silmitasertib -0.013 | [8] -0.013 | entospletinib 0.021
